PMC7878863
Results are given in words; binding and its absence hold for the method and conditions named. In cells and extracts the contact can be indirect. Some binding calls cover weakened binding; strength is not graded here. Where a sequence is shown, tags or fusion partners need not be part of it.

Chains of the proteins cited; added tags and fusions are not shown. Residues count along the entry.
UniProt P02545, residues 1-646: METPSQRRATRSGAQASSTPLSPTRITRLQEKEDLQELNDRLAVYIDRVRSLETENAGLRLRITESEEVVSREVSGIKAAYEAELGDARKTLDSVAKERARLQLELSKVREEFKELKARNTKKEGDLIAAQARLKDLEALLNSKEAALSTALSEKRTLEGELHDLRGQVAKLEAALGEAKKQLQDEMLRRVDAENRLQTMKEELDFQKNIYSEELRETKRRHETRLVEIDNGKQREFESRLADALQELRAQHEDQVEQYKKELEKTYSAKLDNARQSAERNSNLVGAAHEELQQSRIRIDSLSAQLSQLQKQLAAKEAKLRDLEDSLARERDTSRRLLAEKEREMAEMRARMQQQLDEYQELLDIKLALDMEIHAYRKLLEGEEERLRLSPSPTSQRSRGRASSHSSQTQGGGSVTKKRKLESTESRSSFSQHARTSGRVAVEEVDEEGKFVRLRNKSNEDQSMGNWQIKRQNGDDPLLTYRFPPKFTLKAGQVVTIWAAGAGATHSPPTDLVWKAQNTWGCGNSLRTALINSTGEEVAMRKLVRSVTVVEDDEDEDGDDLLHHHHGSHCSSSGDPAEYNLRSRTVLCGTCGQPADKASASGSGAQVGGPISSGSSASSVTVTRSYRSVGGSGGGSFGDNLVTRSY

Target: T1, YFP-SPANX-A (human) (UniProt Q9NS26)
T1 sequence: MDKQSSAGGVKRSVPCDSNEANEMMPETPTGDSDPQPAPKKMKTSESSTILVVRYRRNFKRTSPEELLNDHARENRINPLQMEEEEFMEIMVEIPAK
Experiment: co-IP; YFP-SPANX-A immune complexes from transfected A375 cells, western blot for Lamin A/C (N = 3)

binding: binds
Substance: Lamin-A/C (LMNA) (from UniProt P02545 1-646)
